Values of other authors, collected in US20030215409A1, “Process for the treatment of human keratinous fibers” (L'OREAL, priority 2002, published 2003).
At least one compound was matched to its structure with a doubt left.

Tested on: hair
Details: hair densification, current compositions

SMILES: Nc1cc(N2CCCCC2)nc(N)[n+]1[O-] [minoxidil]
- time after which the user begins to have a benefit: 1.5 months
